Hit rate of the full screen: of about 400,000 compounds, about 13,000 (3.2%) were called active. Inconclusive means that the source gave no clear call. Such entries were picked first, then a sample of the others. Calls follow the shape of the dose curve; as a rule, active = well fitted cell-killing curve with a large enough effect; inconclusive = small, poorly fitted or top-dose-only effect, or effect the other way; inactive = flat fitted curve, though single readings scatter. Potencies beside an inconclusive call are fits to weak or partial responses and may not hold up.
Assay: qHTS assay for MDR1-selective chemotherapeutics: Primary screen using the drug-selected MDR subline cells KB-V1; also: nearly all actives have a fitted effect of over 60% in size
Conditions: KB-V1 MDR cells viability, CellTiter-Glo, 72 h; activity change, negative = cytotoxicity: at 46.1 µM (top of the series)
Method in brief: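 Drug-selected KB-V1 cells, grown in DMEM lacking phenol red with 10% FBS, receive compound titrations; after three days at 37 degrees C, surviving cell ATP is quantified by CellTiter-Glo luminescence and responses normalized and curve-fitted.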
% is scaled to controls: 0 for no effect and ±100 for the full control effect; potency is read from the fitted curve at half-maximal effect.

Structure (SMILES) | Potency | activity change, negative = cytotoxicity
COC(=O)c1nc[nH]c1C(=O)OC | inconclusive: 20.6 µM [rising, single point] | –
O=C(/C=C/c1ccco1)Nc1ccc2c(c1)OCO2 | inconclusive: 29.1 µM [cytotoxic, single point] | –
COc1cc(C(=O)Nc2nc(-c3ccc(Cl)cc3)c(C)s2)ccc1OCC(=O)Nc1ccc(F)cc1 | inconclusive: 18.4 µM [cytotoxic, single point] | –
Cc1ccc2cc(/C=N/NC(=O)c3ccccc3O)c(Cl)nc2c1 | inconclusive: 25.9 µM [cytotoxic, single point] | –
Cc1ccc(C(=O)O/N=C/C2=C(Cl)c3ccccc3CC2)cc1 | inconclusive: 25.9 µM [cytotoxic, partial curve, poor fit] | –
C[C@@H]1CN([C@@H](C)CO)S(=O)(=O)c2ccc(Br)cc2O[C@@H]1CN(C)C(=O)c1ccccn1 | inactive | –
COc1ccc(C(=O)Nc2cccc(-c3nnc(-c4ccco4)o3)c2)cc1 | active: 13 µM | –
COc1ccc(C)cc1NC(=O)C1CCCN(c2ncnc3onc(C)c23)C1 (stereo not given) | inactive | –
Cc1c(-c2nc(-c3ccc(C(C)(C)C)cc3)no2)n(C)oc1=O | inconclusive: 18.4 µM [rising, single point] | –
Cc1cccc(C(=O)Nc2ccnc(-c3ccncc3)n2)c1 | inconclusive: 29.1 µM [cytotoxic, single point] | –
Cc1ccc(C)c(N2CCN(C(=S)Nc3ccc4nc(N5CCOCC5)cc(C)c4c3)CC2)c1 | inconclusive: 8.2 µM [cytotoxic, partial curve] | –
COc1ccc(C(NC(=O)/C=C/c2ccco2)c2ccc(OC)c(OC)c2)cc1OC | inactive | –
COc1ccc(C(C#N)CC(=O)c2ccc(OC)c(OCc3ccccc3)c2)cc1OC (stereo not given) | inconclusive: 2.91 µM [cytotoxic, full curve, poor fit] | –
O=[N+]([O-])c1ccccc1/C=C/C=N/Nc1ccc(S(=O)(=O)Nc2ccc(Cl)cc2)cc1[N+](=O)[O-] | inconclusive: 13 µM [cytotoxic, partial curve] | –
CCn1c(COc2ccccc2)nnc1SCC(=O)NC1CC1 | inconclusive: 14.6 µM [cytotoxic, partial curve] | –
Cc1nn(-c2ccccc2)c(C)c1/C=N/NC(=O)c1cc(C(C)(C)C)[nH]n1 | inconclusive: 18.4 µM [cytotoxic, partial curve] | –
CCOc1ccccc1NC(=O)CN(C)S(=O)(=O)c1ccc(C(=O)N2CCOCC2)s1 | inconclusive: 0.0046 µM [rising, full curve, poor fit] | –
CCOc1ccc(NC(=O)N2CCN(c3nnc(C)c4c(C)n(-c5ccccc5)nc34)CC2)cc1 | inactive | –
COc1ccc(Cl)cc1C(=O)NCCN(C)C | inactive | –
COc1cc(CNC(=O)Nc2nc(C(N)c3ccccc3)cs2)cc(OC)c1OC (stereo not given) | – | inconclusive: -19.7%
CCOC(=O)C1CCN(Cc2c(O)c3ccccc3oc2=O)CC1 | inconclusive: 29.1 µM [rising, single point] | –
CCc1nn(CC(=O)N2CCCCC2)c(=O)c2cc3occc3n12 | inactive | –
O=C1CCCC2=C1C1(CCOCC1)N=C(Nc1nc3ccccc3o1)N2 | inactive | –
CCn1cc([N+](=O)[O-])c(C(=O)N2N=C(c3cccc4ccccc34)CC2c2ccccc2O)n1 (stereo not given) | inactive | –

Structure (SMILES) | Potency | activity change, negative = cytotoxicity
COc1ccc(NC(=O)CN(C)C(=O)c2cc(-c3ccc(OC)cc3)nc3ccccc23)cc1 | inconclusive: 25.9 µM [cytotoxic, single point] | –
O=C(C1CCCCC1)N1CCCn2c1nc1ccccc12 | inactive | –
Clc1cccc(CSc2nnc(-c3c[nH]c4ccccc34)o2)c1 | inconclusive: 29.1 µM [cytotoxic, single point] | –
CCOc1ccc(-n2nc3ccc(NC(=O)c4ccc(OC)c(Cl)c4)cc3n2)cc1 | inconclusive: 29.1 µM [rising, single point] | –
O=C(CC1N=C2c3ccccc3N=C(SCc3ccccc3Cl)N2C1=O)NCCc1ccccc1 (stereo not given) | inconclusive: 16.4 µM [cytotoxic, partial curve] | –
Cn1c(=O)c(=O)n(C)c2cc(S(=O)(=O)N3CCCCC3)ccc21 | inconclusive: 18.4 µM [cytotoxic, partial curve, poor fit] | –
Cc1cc(Nc2cccc(Cl)c2)nc2ccc(NC(=O)c3cncc(Br)c3)cc12 | inconclusive: 29.1 µM [cytotoxic, single point] | –
CN(C)c1c(Cl)cc(/C=C/c2ccnc3ccccc23)cc1Br | active: 16.4 µM | –
CCCCn1c(=O)n(-c2cc(OC)ccc2OC)c(=O)c2c3c(sc21)CN(C(C)=O)CC3 | – | inconclusive: -30.2% [cytotoxic]
Cc1c(C(=O)N(CCO)Cc2ccccc2)oc2c(F)cccc12 | inactive | –
O=S(=O)(c1ccccc1)N1N=C(c2ccccc2)CC1c1ccccc1 (stereo not given) | inconclusive: 20.6 µM [cytotoxic, single point] | –
Cc1ccc(C2Nc3ccc4ccccc4c3C3=C2C(=O)CC(C)(C)C3)o1 (stereo not given) | active: 10.3 µM | –
COCCCN1C(=O)C(CC(=O)NC2CC2)CC(C(=O)N2CCOCC2)=C1C (stereo not given) | inconclusive: 29.1 µM [cytotoxic, single point] | –
CCCc1c(-c2cccc(Cl)c2)ncn1CCc1ccccc1OC | active: 14.6 µM | –
COc1ccc(C2=CCCCCC2)c(OC)c1OC | inactive | –
CC1=NN(C(N)=S)C(=O)C1N=Nc1c(C)n(C)n(-c2ccccc2)c1=O (stereo not given) | inactive | –
COc1ccc(S(=O)(=O)N2CCOCC2)cc1NC(=O)CCNC(=O)c1ccc(Cl)cc1 | inactive | –
CCN(c1ccc(OC)cc1)S(=O)(=O)N1CCCC(C(=O)NCc2ccc(OC(C)C)cc2)C1 (stereo not given) | inconclusive: 9.2 µM [cytotoxic, partial curve, poor fit] | –
COc1nc(NC(C)(C)C)nc(Oc2ccc(=O)n(-c3ccccc3)n2)n1 | active: 20.6 µM | –
CC1CCc2sc3nc(NCc4ccco4)n4ncnc4c3c2C1 (stereo not given) | inconclusive: 20.6 µM [cytotoxic, single point] | –
COc1ccc(/C=N/NC(=O)c2ccc(-n3cnnn3)cc2)cc1 | inconclusive: 25.9 µM [cytotoxic, single point] | –
Cc1c(C)c2ccc(OCC(=O)Nc3ccccn3)c(C)c2oc1=O | inconclusive: 32.6 µM [cytotoxic, partial curve, poor fit] | –
O=C(N=Nc1c(O)[nH]c2ccc(Br)cc12)c1ccccc1-n1cccc1 | active: 3.26 µM | –
CC(O)c1cccc(-c2ccc(CN3C[C@]4(CO)O[C@@H](CO)C[C@@H]4S3(=O)=O)cc2)c1 (stereo not given in full) | inactive | –

Among those listed so far, these have a nitro group on carbon.
Structure (SMILES) | Potency | activity change, negative = cytotoxicity
O=[N+]([O-])c1ccccc1/C=C/C=N/Nc1ccc(S(=O)(=O)Nc2ccc(Cl)cc2)cc1[N+](=O)[O-] | inconclusive: 13 µM [cytotoxic, partial curve] | –
CCn1cc([N+](=O)[O-])c(C(=O)N2N=C(c3cccc4ccccc34)CC2c2ccccc2O)n1 (stereo not given) | inactive | –

Continued:

Structure (SMILES) | Potency | activity change, negative = cytotoxicity
O=C(Nc1cccc([N+](=O)[O-])c1)C1C2/C=C\CCCCC21 (stereo not given) | inconclusive: 29.1 µM [rising, single point] | –
COc1ccc(-c2cc(C(=O)NC3=NCCS3)c3ccccc3n2)cc1OC | inactive | –
O=C(NC1CCCCCC1)C1CCN(c2nc3ccccc3o2)CC1 | inconclusive: 20.6 µM [cytotoxic, single point] | –
CCCNC(=O)c1ccc(COc2ccc(CCC)cc2OC)o1 | inactive | –
CCc1cc2ccc(C)cc2nc1SCC(=O)NNC(=O)c1ccco1 | inconclusive: 16.4 µM [rising, single point] | –
COc1cccc(CN(C)C(=O)c2cccc(S(=O)(=O)N3CCN(c4ccccc4)CC3)c2)c1 | inconclusive: 5.8 µM [cytotoxic, partial curve] | –
COC(=O)c1cccc(NC2=NS(=O)(=O)c3ccccc32)c1 | inconclusive: 29.1 µM [rising, single point] | –
CCOc1ccc(C(=O)NC(=S)Nc2ncccc2C)cc1[N+](=O)[O-] | inconclusive: 20.6 µM [cytotoxic, single point] | –
CCOc1ccc(N(CC(=O)NC2CCCCCC2)S(=O)(=O)c2ccccc2)cc1 | inconclusive: 0.58 µM [cytotoxic, full curve] | –
COc1ccc(C)cc1NC(=O)C1CCN(S(=O)(=O)c2cc(Br)cc3c2N(C(C)=O)CC3)CC1 | inactive | –
COC(=O)c1cccc(S(=O)(=O)N(Cc2ccco2)Cc2cc3cc(OC)ccc3[nH]c2=O)c1 | active: 16.4 µM | –
CSCCC(NC(=O)c1ccc(Cl)cc1Cl)C(=O)N1CC(C)OC(C)C1 (stereo not given) | – | inconclusive: -2.43%
COc1cc2oc3cc(C#Cc4ccc(N)cc4)ccc3c(=O)c2cc1OC | inactive | –
COc1ccc(Cl)cc1-c1cc(C(=O)NCc2cccc(C(F)(F)F)c2)[nH]n1 | inactive | –
COc1ccc2oc(C(=O)Nc3ccccn3)c(C)c2c1 | inconclusive: 29.1 µM [cytotoxic, single point] | –
O=C(NCCCN1CCOCC1)c1cccc(NS(=O)(=O)c2ccc(Br)cc2)c1 | inconclusive: 7.31 µM [rising, partial curve] | –
O=C(CSc1nnc(CNC(=O)c2ccccc2F)o1)NCc1ccccc1 | inconclusive: 18.4 µM [rising, partial curve, poor fit] | –
CCN(CC(=O)Nc1c(Cl)cccc1Cl)C(=O)C1CCN(c2ncnc3sc(C)c(C)c23)CC1 | inactive | –
CC(=O)N1CCSc2ccc(S(=O)(=O)Nc3cccc(C)c3)cc21 | inconclusive: 18.4 µM [cytotoxic, single point] | –
O=C(CSc1nnc(-c2ccc(Cl)cc2)o1)c1ccc([N+](=O)[O-])cc1 | inconclusive: 3.26 µM [cytotoxic, partial curve, poor fit] | –
COc1cc(/C=C2/SC(=Nc3ccc(O)cc3)NC2=O)cc(OC)c1O | inactive | –
CCc1ccc(C(=O)c2cn(CC(=O)Nc3cccc(OC)c3)c3cc4c(cc3c2=O)OCO4)cc1 | inactive | –
